The list shows a part of the results. Small differences around the control level are noise.

By UniProt entry, the sequences of proteins in these tests, tags left out. Where a name states a change or a piece, a line headed by the entry shows the natural chain unless it says otherwise.
UniProt E9Q7D5: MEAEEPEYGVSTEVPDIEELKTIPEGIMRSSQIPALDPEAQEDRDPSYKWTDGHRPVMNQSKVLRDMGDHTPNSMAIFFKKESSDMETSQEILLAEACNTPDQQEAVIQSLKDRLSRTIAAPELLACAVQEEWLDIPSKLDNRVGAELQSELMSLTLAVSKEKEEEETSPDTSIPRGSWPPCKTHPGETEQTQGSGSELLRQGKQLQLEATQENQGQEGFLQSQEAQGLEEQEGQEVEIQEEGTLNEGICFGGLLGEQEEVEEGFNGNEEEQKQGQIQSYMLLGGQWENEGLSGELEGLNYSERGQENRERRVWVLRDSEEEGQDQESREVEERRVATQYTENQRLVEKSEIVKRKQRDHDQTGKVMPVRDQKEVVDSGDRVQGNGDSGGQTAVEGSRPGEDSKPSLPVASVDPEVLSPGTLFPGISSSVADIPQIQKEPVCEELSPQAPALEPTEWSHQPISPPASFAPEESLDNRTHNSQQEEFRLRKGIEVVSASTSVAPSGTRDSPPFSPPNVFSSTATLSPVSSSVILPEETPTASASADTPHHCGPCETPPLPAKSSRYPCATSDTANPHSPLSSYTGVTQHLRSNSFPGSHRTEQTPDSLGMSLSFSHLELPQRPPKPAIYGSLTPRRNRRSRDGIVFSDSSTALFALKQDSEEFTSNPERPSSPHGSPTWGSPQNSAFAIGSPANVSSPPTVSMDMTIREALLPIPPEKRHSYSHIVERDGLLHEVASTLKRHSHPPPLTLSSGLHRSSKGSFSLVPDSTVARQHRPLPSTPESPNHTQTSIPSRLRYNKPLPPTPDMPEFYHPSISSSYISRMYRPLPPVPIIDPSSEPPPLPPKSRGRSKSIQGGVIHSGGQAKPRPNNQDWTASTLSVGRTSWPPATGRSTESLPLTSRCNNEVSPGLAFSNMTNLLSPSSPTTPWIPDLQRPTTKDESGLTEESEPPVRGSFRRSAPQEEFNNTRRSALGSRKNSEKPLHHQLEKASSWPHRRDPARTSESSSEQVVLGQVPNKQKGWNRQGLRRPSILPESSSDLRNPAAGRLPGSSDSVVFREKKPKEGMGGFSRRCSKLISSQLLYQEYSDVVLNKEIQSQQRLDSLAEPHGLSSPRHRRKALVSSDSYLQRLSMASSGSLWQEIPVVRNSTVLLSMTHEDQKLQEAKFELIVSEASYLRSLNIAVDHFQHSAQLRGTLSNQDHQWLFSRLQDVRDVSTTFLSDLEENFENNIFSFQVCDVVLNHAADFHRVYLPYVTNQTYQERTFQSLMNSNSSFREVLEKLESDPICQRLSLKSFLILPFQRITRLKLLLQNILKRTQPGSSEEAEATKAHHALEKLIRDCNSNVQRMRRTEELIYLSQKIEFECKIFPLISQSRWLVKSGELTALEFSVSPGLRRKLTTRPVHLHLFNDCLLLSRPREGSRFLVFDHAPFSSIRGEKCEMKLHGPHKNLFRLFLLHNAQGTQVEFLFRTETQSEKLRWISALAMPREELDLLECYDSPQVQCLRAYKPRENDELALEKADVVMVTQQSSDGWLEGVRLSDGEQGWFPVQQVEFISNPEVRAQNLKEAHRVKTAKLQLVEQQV
UniProt E9PY46: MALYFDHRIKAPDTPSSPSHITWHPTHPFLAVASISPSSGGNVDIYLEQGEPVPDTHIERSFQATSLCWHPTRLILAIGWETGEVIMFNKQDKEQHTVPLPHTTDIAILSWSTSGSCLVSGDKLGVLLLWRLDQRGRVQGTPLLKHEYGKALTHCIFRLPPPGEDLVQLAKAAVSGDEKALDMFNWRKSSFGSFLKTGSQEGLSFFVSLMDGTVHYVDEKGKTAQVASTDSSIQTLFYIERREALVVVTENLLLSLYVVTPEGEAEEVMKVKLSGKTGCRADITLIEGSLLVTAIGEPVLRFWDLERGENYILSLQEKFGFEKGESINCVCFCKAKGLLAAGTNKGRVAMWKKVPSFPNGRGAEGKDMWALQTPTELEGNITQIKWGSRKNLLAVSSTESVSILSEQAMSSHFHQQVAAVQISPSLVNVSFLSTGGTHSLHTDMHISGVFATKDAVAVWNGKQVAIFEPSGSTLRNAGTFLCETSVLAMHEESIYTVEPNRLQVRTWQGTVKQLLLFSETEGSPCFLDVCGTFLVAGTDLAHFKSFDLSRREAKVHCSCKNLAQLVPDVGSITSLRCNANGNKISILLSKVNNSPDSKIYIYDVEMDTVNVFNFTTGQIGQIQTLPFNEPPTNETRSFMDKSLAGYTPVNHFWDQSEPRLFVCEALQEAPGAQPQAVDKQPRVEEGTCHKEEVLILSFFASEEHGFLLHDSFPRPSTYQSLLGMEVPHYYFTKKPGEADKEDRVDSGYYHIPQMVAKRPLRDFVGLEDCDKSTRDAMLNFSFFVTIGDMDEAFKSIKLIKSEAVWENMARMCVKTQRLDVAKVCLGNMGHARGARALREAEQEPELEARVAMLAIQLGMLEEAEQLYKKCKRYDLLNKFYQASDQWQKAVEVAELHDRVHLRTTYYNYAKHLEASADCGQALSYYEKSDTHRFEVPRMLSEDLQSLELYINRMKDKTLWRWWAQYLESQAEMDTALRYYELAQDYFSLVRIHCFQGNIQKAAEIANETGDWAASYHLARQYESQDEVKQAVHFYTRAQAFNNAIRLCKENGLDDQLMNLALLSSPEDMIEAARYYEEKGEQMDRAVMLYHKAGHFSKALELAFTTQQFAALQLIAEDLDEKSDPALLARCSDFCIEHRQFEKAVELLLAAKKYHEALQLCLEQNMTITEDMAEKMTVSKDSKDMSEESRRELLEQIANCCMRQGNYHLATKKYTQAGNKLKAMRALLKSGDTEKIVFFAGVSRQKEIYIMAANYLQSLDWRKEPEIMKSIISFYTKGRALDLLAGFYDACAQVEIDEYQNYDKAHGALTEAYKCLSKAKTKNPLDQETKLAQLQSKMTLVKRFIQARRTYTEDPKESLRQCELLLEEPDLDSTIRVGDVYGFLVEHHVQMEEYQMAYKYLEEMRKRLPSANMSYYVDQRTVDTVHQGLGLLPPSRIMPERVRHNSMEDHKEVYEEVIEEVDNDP
UniProt E9Q7G0: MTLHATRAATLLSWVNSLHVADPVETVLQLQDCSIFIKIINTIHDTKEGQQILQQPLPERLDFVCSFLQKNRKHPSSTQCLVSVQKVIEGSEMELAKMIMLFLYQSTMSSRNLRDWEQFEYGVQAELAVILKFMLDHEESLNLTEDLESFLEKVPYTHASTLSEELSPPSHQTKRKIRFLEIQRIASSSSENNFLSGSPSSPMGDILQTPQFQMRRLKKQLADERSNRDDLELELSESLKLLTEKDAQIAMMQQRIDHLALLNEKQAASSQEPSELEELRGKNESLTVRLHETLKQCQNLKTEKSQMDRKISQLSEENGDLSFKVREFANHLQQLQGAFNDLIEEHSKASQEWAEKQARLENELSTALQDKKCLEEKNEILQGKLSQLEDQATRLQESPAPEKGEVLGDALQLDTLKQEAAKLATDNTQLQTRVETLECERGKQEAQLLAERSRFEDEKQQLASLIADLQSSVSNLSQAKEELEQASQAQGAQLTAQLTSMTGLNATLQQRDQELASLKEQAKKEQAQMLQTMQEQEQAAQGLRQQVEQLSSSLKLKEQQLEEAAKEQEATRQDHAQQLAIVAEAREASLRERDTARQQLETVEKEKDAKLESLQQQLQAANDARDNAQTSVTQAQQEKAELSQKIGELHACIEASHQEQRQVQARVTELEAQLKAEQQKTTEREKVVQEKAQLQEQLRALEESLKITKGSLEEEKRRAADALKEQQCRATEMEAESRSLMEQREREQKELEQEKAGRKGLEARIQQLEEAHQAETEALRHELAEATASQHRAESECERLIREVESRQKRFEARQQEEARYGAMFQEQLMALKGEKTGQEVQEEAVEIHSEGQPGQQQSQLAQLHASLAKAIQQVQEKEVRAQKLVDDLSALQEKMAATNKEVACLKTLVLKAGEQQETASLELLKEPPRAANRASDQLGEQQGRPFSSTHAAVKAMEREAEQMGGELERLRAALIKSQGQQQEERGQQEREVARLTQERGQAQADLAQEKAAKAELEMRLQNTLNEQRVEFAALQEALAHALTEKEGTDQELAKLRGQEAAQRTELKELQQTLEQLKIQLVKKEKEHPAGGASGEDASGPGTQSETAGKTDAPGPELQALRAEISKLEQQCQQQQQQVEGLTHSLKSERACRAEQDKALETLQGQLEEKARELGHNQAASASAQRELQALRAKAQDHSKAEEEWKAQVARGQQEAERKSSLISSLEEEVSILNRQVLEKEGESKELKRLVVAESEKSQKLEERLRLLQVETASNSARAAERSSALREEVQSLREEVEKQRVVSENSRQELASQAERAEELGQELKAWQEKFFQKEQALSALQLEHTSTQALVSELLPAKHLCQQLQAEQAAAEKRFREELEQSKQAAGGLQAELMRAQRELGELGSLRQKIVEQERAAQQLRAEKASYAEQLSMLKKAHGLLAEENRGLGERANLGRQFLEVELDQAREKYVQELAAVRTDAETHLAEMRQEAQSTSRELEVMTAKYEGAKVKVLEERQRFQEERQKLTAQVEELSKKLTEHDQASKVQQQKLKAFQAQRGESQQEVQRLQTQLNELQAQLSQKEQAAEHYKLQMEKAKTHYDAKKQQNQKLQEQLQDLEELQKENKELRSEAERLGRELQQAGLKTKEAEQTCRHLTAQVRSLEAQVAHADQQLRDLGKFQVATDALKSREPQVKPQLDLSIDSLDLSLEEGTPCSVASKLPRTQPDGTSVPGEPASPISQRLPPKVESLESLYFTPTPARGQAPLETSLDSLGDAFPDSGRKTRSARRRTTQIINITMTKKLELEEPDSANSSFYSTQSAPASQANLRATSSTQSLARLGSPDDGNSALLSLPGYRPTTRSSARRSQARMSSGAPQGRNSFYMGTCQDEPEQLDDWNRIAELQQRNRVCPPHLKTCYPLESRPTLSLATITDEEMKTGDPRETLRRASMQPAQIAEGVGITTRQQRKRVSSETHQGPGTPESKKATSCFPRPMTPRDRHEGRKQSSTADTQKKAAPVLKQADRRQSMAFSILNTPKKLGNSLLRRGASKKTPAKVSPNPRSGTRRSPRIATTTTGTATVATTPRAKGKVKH
UniProt G3X982: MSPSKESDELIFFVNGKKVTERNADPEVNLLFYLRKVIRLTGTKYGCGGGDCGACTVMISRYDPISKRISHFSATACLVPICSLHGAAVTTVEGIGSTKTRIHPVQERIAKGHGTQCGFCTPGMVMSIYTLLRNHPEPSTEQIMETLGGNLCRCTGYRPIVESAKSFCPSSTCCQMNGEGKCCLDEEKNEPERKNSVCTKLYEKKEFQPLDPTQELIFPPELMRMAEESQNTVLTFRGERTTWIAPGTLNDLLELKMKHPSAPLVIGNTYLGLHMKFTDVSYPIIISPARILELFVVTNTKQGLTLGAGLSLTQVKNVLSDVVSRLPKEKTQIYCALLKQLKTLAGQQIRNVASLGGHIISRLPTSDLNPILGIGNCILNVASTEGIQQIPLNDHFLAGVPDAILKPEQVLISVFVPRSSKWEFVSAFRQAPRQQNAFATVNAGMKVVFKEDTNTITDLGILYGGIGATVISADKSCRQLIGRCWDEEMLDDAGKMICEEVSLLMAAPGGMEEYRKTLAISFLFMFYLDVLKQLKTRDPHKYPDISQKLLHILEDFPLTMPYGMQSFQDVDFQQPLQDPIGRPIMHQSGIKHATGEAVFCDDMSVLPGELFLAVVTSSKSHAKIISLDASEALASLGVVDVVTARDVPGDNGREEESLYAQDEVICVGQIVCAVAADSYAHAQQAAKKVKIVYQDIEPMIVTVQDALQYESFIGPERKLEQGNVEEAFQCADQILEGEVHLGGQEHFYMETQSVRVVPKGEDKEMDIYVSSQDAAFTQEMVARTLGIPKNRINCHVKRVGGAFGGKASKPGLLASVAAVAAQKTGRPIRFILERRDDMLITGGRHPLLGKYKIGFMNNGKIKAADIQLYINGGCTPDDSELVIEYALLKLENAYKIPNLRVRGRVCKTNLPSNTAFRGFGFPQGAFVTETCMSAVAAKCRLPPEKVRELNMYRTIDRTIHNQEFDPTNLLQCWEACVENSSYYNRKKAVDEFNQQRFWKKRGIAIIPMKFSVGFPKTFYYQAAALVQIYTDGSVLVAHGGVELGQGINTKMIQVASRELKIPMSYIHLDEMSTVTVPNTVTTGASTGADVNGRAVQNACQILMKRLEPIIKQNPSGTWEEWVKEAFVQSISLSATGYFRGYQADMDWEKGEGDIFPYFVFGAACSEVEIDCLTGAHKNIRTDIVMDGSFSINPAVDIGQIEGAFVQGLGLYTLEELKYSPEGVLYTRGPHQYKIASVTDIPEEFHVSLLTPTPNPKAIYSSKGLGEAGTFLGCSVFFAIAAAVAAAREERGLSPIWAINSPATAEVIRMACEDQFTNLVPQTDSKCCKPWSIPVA

Compound in this assay: CN[C@@H]1C[C@H]2O[C@@](C)([C@@H]1OC)n1c3ccccc3c3c4c(c5c6ccccc6n2c5c31)C(=O)NC4 [staurosporine]
Description: log2 fold change of tryptic peptide abundance, ligand vs vehicle (limited proteolysis) (log2 ratio); higher = more trypsin-susceptible (destabilized). Particulars: ligand concentration: 20 uM; sample: mouse liver crude lysate; replicate design: treated separately.
Consider “UniProt O08915 (peptide sequence: GKPMELIVGK, peptide start residue: 57)”, for which the log2 fold change came to 0.289. For the target “UniProt O08738 (peptide sequence: RVDFCKDPDAIGK, peptide start residue: 242)”, the log2 fold change is -0.534. Next, “UniProt O35368 (peptide sequence: KMQEDYDR, peptide start residue: 37)”: -0.261; “UniProt O35298 (peptide sequence: DGIPYEKK, peptide start residue: 239)”: 0.145; “UniProt G5E870 (peptide sequence: GLWHPYNR, peptide start residue: 776)”: 0.389. “UniProt O08539 (peptide sequence: QHGSNTFTVK, peptide start residue: 273)”: the log2 fold change is -0.182. With “UniProt O35326 (peptide sequence: DADDAVYELDGK, peptide start residue: 49)”, the log2 fold change came to 0.111.

Regarding “UniProt O08600 (peptide sequence: NHVAVPTHFFK, peptide start residue: 218)”, the log2 fold change was determined as 0.145. In the case of “UniProt O35144 (peptide sequence: KDEHESAAPAEGEGGSDRQPR, peptide start residue: 377)”, the log2 fold change stood at 0.458. For “UniProt O08638 (peptide sequence: SKLQEVEGAVK, peptide start residue: 1799)”, the log2 fold change is 0.303.

As for “UniProt D3Z2X2 (peptide sequence: KEQKAEENK, peptide start residue: 3617)”, the log2 fold change came out at 0.027.

Turning to “UniProt O35381 (peptide sequence: IKDLSTIEPLK, peptide start residue: 100)”, the log2 fold change stood at 0.158.

Take “UniProt G5E861 (peptide sequence: HLLAAQQK, peptide start residue: 579)”: the log2 fold change was -0.443.

As for “UniProt E9Q7D5 (peptide sequence: STESLPLTSR, peptide start residue: 891)”, the log2 fold change amounted to 0.137.

Regarding “UniProt E9Q7M2 (peptide sequence: LDHGSGEPYRR, peptide start residue: 155)”, the log2 fold change turned out to be 0.655. To “UniProt O08784 (peptide sequence: LKATEAIK, peptide start residue: 1172)” belongs -0.205; to “UniProt D3YXK1 (peptide sequence: IYEHHIK, peptide start residue: 496)”, -0.677. With “UniProt O35400 (peptide sequence: KGISGDWK, peptide start residue: 258)”, the log2 fold change is -0.0127. Next, “UniProt E9PY46 (peptide sequence: VCLGNMGHAR, peptide start residue: 823)”: 0.732; “UniProt E9Q7G0 (peptide sequence: TDAPGPELQALR, peptide start residue: 1111)”: 0.181; “UniProt E9Q394 (peptide sequence: RAETFGGFDCHQMNASK, peptide start residue: 2428)”: -0.284. Take “UniProt O09167 (peptide sequence: RVKENDQK, peptide start residue: 108)”: the log2 fold change is -0.634. In the case of “UniProt E9QAT4 (peptide sequence: AESTLEPK, peptide start residue: 2277)”, the log2 fold change was -0.227.

Turning to “UniProt O08717 (peptide sequence: QQILEGLHLTSRPR, peptide start residue: 49)”, the log2 fold change was -0.218.

For the target “UniProt O35473 (peptide sequence: LDPLEQAK, peptide start residue: 47)”, the log2 fold change was -0.187. Turning to “UniProt E9Q557 (peptide sequence: ENLSWQKLESEK, peptide start residue: 1163)”, the log2 fold change amounted to 0.758. As to “UniProt O35426 (peptide sequence: VLLLSGQPASGGR, peptide start residue: 17)”, the log2 fold change is -0.353. On to “UniProt O08715 (peptide sequence: DASFPYEAVER, peptide start residue: 149)”, for which the log2 fold change was -0.159. To “UniProt E9Q6J5 (peptide sequence: KTENSEVDTSAR, peptide start residue: 1456)” belongs -1.18.

For the target “UniProt O08788 (peptide sequence: KLDSAAKDADER, peptide start residue: 979)”, the log2 fold change turned out to be 0.855. Consider “UniProt E9PZM4 (peptide sequence: FTEFDAR, peptide start residue: 1540)”, for which the log2 fold change stood at 0.307.

In the case of “UniProt E9Q5C9 (peptide sequence: KAGPYSSVPPPSVPLPK, peptide start residue: 294)”, the log2 fold change is -0.284. Consider “UniProt B9EJ86 (peptide sequence: CLWIHPR, peptide start residue: 494)”, for which the log2 fold change came to 0.355. Next, “UniProt O08849 (peptide sequence: MKRTLLK, peptide start residue: 33)”: -0.153; “UniProt G3X982 (peptide sequence: CCLDEEKNEPER, peptide start residue: 182)”: 0.188; “UniProt O08692 (peptide sequence: AIEAYNQGR, peptide start residue: 34)”: -0.211.

The values are drawn from the supplement of paper PMC12819154, “High-throughput peptide-centric local stability assay extends protein–ligand identification to membrane proteins, tissues and bacteria” (Nature Structural & Molecular Biology, 2025).
